This experiment has as its system L1210 leukemia ip in BDF1 mice, survival T/C. Put plainly: NCI In Vivo Anticancer Drug Screen. Data for tumor model L1210 Leukemia (intraperitoneal) in B6D2F1 (BDF1) mice. To be noted: T/C endpoint: mean survival time, higher T/C = longer survival.

The list shows only some results of the screen, not a fair sample: it is rich in T/C values a quarter to a half above the control, in often repeated tests (any T/C) and in doses without a T/C. Further doses and runs are listed elsewhere. T/C gives the treated animals as a percentage of the vehicle group. Some doses have a count of surviving animals in place of a T/C: the source files T/C as zero there, which appears to mark a toxic dose or a test without result, not a measured value. Some survivor counts are full or nearly so, which does not show that the dose was tolerated: survival well below the control is almost never listed, so the zero probably covers shortened survival too. Survivors were counted at the toxicity check, usually on the fifth day, unless a day is given; later deaths do not show. Schedule codes are those of the source, read here as Q, the interval in days (D) or hours (H), X, the number of doses. Some doses were run more than once; the results are listed from low to high. For survival time, this PubChem deposit counts one and a half times the control or more as active, and values a quarter to a half above the control carry no call in these data; other NCI protocols may use other cut-offs. Some T/C values carry the count of animals alive at the toxicity check (mostly the fifth day); without a count, all were alive then.

With `Cc1cccc(C)c1C1=NCCN1`, the survivor count (dose: 100.0 mg/kg/injection, schedule: Q01DX009 (ip), vehicle: saline with Tween-80) is 3 of 6; the survivor count (dose: 200.0 mg/kg/injection, schedule: Q01DX009 (ip), vehicle: saline with Tween-80) is on record as 0 of 6; the survivor count (dose: 400.0 mg/kg/injection, schedule: Q01DX009 (ip), vehicle: saline with Tween-80) is on record as 0 of 6.
With `CC(=O)Nc1ccc(/C=N/NC(=O)c2cccc3ccccc23)cc1`, the survivor count is 4 of 4 (dose: 200.0 mg/kg/injection, schedule: Q01DX001 (ip), vehicle: saline) and 2 of 4 (dose: 400.0 mg/kg/injection, schedule: Q01DX001 (ip), vehicle: saline).
For the compound `c1ccc([P+](c2ccccc2)(c2ccccc2)C2OCCO2)cc1`, the survivor count (dose: 100.0 mg/kg/injection, schedule: Q04DX003 (ip), vehicle: saline with Tween-80) is given as 5 of 6.
As to `COC(=O)C(c1ccccc1)C1(O)CCN(CC2COc3ccccc3O2)CC1` (stereo not given), the survivor count reads like this: (dose: 200.0 mg/kg/injection, schedule: Q01DX001 (ip), vehicle: Klucel (hydroxypropylcellulose) (HPC)) 3 of 6; (dose: 400.0 mg/kg/injection, schedule: Q01DX001 (ip), vehicle: Klucel (hydroxypropylcellulose) (HPC)) 0 of 6.
`CCC1(O)CC(OC2CC(N(C)C)C(OC3CC4OC5CC(=O)C(C)OC5OC4C(C)O3)C(C)O2)c2c(cc3c(c2O)C(=O)c2c(O)ccc(O)c2C3=O)C1C(=O)OC` (stereo not given): the survivor count (dose: 0.75 mg/kg/injection, schedule: Q01DX009 (ip), vehicle: saline with Tween-80) was 10 of 10; the survivor count (dose: 1.5 mg/kg/injection, schedule: Q01DX009 (ip), vehicle: saline with Tween-80) is 10 of 10; the survivor count (dose: 3.0 mg/kg/injection, schedule: Q01DX009 (ip), vehicle: saline with Tween-80) is reported as 10 of 10; the survivor count (dose: 3.0 mg/kg/injection, schedule: Q01DX015 (ip), vehicle: saline) is 2 of 6; the survivor count (dose: 5.0 mg/kg/injection, schedule: Q01DX015 (ip), vehicle: saline) is reported as 0 of 6; the survivor count (dose: 6.0 mg/kg/injection, schedule: Q01DX009 (ip), vehicle: saline with Tween-80) is 5 of 10 and 9 of 10. Besides, the survivor count is, setting by setting: (dose: 12.0 mg/kg/injection, schedule: Q04DX003 (ip), vehicle: saline with Tween-80) 3 of 6 and 10 of 10; (dose: 12.5 mg/kg/injection, schedule: Q01DX001 (ip), vehicle: saline) 1 of 4; (dose: 25.0 mg/kg/injection, schedule: Q01DX001 (ip), vehicle: saline) 0 of 4; (dose: 50.0 mg/kg/injection, schedule: Q01DX001 (ip), vehicle: saline) 0 of 4. Further, the T/C (dose: 1.5 mg/kg/injection, schedule: Q03HX008 (ip), vehicle: saline with Tween-80) is 129 % of control; the T/C (dose: 4.0 mg/kg/injection, schedule: Q01DX001 (ip), vehicle: saline) was 130 % of control; the T/C (dose: 4.0 mg/kg/injection, schedule: Q04DX003 (ip), vehicle: saline with Tween-80) was 136 % of control; the T/C (dose: 5.0 mg/kg/injection, schedule: Q04DX003 (ip), vehicle: saline) was 145 % of control; the T/C (dose: 6.0 mg/kg/injection, schedule: Q01DX001 (ip), vehicle: saline) is 144 % of control; the T/C (dose: 6.25 mg/kg/injection, schedule: Q01DX001 (ip), vehicle: saline) is 139 % of control. In addition, under “dose: 9.0 mg/kg/injection, schedule: Q01DX001 (ip), vehicle: saline”, the T/C was 149 % of control [5 of 6 alive].

(Values after PubChem BioAssay AID248 (DTP/NCI, 2004).)
